In paper PMC3048406:
These are yes or no findings as the source states them, for the method shown. In cells and extracts the contact can be indirect. Some binding calls cover weakened binding; strength is not graded here.

By UniProt entry, the sequences of proteins in these tests, tags left out. Residues count along the entry.
UniProt P41739: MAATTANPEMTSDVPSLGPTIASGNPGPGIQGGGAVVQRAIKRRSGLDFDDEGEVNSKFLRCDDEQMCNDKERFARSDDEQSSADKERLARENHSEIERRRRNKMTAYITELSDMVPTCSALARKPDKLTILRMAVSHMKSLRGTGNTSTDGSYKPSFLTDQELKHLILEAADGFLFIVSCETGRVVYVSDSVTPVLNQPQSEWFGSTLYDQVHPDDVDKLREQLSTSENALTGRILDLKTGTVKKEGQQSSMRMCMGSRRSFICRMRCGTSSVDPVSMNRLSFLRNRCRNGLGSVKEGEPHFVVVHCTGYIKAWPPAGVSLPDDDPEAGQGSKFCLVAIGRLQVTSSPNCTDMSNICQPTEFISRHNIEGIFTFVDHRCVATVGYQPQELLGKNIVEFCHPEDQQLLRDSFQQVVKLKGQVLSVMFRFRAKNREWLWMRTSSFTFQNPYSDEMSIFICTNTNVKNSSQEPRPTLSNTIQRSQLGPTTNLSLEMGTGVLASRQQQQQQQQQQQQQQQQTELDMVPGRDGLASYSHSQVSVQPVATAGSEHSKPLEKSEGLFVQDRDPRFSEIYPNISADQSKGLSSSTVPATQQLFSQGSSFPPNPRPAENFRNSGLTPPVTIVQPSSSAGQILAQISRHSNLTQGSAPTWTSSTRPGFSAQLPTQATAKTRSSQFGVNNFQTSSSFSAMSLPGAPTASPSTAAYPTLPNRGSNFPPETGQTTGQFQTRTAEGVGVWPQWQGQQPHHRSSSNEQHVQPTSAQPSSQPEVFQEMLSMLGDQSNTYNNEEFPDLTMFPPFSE
UniProt Q5I0H3, residues 1-97: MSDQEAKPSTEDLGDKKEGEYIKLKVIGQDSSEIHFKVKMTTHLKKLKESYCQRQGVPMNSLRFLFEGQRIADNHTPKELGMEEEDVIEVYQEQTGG
UniProt O35800: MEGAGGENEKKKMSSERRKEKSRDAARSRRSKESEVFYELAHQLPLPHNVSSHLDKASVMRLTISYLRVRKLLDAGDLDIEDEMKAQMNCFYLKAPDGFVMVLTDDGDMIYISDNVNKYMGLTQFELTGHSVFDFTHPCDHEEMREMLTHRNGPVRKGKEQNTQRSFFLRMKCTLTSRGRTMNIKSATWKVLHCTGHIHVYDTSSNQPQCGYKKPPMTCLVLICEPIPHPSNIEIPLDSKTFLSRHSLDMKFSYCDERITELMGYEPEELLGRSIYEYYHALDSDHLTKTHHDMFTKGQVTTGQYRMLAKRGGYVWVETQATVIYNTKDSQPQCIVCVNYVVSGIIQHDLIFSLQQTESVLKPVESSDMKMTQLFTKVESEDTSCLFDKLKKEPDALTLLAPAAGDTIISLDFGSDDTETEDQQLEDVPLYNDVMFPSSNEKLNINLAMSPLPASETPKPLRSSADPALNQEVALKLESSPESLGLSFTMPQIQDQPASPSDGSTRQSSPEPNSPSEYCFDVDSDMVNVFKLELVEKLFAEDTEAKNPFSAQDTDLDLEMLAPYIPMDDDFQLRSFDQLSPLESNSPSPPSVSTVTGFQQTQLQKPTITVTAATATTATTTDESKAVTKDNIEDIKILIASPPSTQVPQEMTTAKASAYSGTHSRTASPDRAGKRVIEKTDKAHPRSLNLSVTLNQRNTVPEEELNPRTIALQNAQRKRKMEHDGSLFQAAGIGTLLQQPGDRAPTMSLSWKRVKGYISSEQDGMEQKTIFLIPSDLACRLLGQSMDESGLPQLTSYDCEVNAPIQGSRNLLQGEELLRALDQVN
UniProt Q9JHS1: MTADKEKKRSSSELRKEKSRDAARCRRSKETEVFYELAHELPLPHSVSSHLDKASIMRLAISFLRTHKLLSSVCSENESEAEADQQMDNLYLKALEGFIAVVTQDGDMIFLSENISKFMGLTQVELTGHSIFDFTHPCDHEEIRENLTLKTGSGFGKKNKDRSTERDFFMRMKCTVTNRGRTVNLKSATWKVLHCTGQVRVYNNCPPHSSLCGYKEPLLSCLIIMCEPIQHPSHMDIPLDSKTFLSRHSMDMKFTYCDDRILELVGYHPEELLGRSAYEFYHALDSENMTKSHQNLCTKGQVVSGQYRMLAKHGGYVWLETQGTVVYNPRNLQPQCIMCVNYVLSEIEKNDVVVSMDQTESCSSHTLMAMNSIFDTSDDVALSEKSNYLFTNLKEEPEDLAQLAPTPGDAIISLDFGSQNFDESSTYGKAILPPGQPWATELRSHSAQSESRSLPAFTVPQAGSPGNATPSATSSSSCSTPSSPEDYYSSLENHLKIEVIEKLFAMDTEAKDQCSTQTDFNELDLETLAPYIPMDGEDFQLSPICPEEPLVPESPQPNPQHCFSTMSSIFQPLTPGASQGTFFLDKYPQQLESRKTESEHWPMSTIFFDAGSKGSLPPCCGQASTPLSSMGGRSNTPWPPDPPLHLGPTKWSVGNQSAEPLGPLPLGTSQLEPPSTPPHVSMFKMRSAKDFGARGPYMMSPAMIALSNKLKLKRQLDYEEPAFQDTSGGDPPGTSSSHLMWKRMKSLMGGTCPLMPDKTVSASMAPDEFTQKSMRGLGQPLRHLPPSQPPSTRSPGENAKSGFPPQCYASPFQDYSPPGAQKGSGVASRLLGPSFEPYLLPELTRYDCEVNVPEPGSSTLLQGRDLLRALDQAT

Key:
[1] = biological target: HIF-1β (rat (endogenous in ventrolateral medulla)) (UniProt P41739); assay: co-IP; cytosolic fraction of rat ventrolateral medulla (sham, aCSF, Phases I and II of mevinphos intoxication); immunoprecipitated with anti-HIF-1β antiserum; immunoblot for HIF-1α or HIF-2α; used as a control
[2] = biological target: HIF-1β (rat (endogenous in ventrolateral medulla)) (UniProt P41739); assay: co-IP; nuclear fraction of rat ventrolateral medulla (sham, aCSF, Phases I and II of mevinphos intoxication); immunoprecipitated with goat polyclonal anti-HIF-1β on protein G-agarose; immunoblot for HIF-1α or HIF-2α
[3] = biological target: small ubiquitin-related modifier-1 (rat (endogenous in ventrolateral medulla)) (UniProt Q5I0H3); assay: co-IP; nuclear and cytosolic fractions of rat ventrolateral medulla (sham, aCSF, Phases I and II of mevinphos intoxication); immunoprecipitated with rabbit polyclonal anti-SUMO-1 or mouse monoclonal anti-HIF-1α on protein G-agarose; immunoblot for HIF-1α or SUMO-1
[4] = biological target: hypoxia-inducible factor-1α (rat (endogenous in ventrolateral medulla)) (UniProt O35800); assay: as above

HIF-2α (from UniProt Q9JHS1 1-874) was tested, and the binding [1] was “binds weakly” and the binding [2] was “binds”.

With “hypoxia-inducible factor-1α (from UniProt O35800 1-825)” the binding [1] was “binds weakly”, the binding [3] was “binds” and the binding [2] was “binds”.

For “small ubiquitin-related modifier-1 (from UniProt Q5I0H3 1-97)”, the binding [4] was “binds”.
